Test results from PubChem BioAssay AID504467 (National Center for Advancing Translational Sciences (NCATS), 2011).
Out of some 330,000 compounds screened, about 7,700 (2.3%) were called active. The inconclusive results got no clear call from the source; some entries with a clear call stand among them for comparison. Calls follow the shape of the dose curve; as a rule, active = well fitted inhibition curve with a large enough effect; inconclusive = small, poorly fitted or top-dose-only effect, or effect the other way; inactive = flat fitted curve, though single readings scatter. Potencies beside an inconclusive call are fits to weak or partial responses and may not hold up.
% is scaled to controls: 0 for no effect and ±100 for the full control effect; potency is read from the fitted curve at half-maximal effect.

Test: qHTS screen for small molecules that inhibit ELG1-dependent DNA repair in human embryonic kidney (HEK293T) cells expressing luciferase-tagged ELG1; also: nearly all actives have a fitted effect of over 55% in size
Conditions: HEK293T ELG1-luciferase reporter, luminescence, 16 h, DNA damage induced by 5-fluorouridine; activity change, negative = inhibition: at 46.1 µM (top of the series)
How it was run: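 Reporter activity after DNA damage by 5-fluorouridine is monitored. Compound-treated cells incubate 16 hr at 37 °C, then ONE-Glo is added for 30 min before luminescence reading.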
In the case of `CCCN(CC(=O)Nc1cc(Cl)ccc1Cl)C(=O)c1ccccn1`, the “activity change, negative = inhibition” value is reported as inactive: -1.05%. With `NC(=O)NC(=O)COC(=O)c1cccc(NS(=O)(=O)/C=C/c2ccccc2)c1` the Potency was inconclusive: 10.3 µM [inhibitor, partial curve, poor fit]. For `CCc1cccc(NC(=O)CCCn2c(=O)[nH]c3ccsc3c2=O)c1`, the “activity change, negative = inhibition” value was inactive: -1.31%. For `CC(Oc1ccc(F)cc1)C(=O)Nc1cc(S(=O)(=O)N2CCOCC2)ccc1N1CCN(C)CC1` (configuration not stated), the “activity change, negative = inhibition” value was inactive: 4.53%. With `O=C(O)C1CCCCC1C(=O)Nc1ccc(S(=O)(=O)N2CCCCC2)cc1` (configuration not stated) the “activity change, negative = inhibition” value was inactive: 11.2%. For `Cc1ccc(Sc2ccc(N)cn2)cc1`, the Potency was inconclusive: 23.1 µM [activator, partial curve]. In the case of `COc1ccc(Br)cc1CNc1ccc(N2CCOCC2)cc1`, the Potency is reported as inconclusive: 29.1 µM [inhibitor, single point]. For `O=C(Nc1ccc(-c2noc(-c3ccccc3F)n2)cc1)c1cccs1`, the Potency was inconclusive: 18.4 µM [activator, partial curve]. For `CC(=O)Nc1ccc(NC(=O)c2ccc(C)c(S(=O)(=O)Nc3cccc(C)c3)c2)cc1`, the Potency was active: 20.6 µM. For `C=CC(=O)Nc1ccc(Nc2nc(NC3CCC(N(C)C)CC3)nc3c2ncn3C(C)C)cc1` (configuration not stated), the Potency was active: 2.31 µM. In the case of `O=C(NC1CCN(Cc2ccccc2)CC1)c1ccccc1Cl`, the “activity change, negative = inhibition” value is reported as inactive: 16.7%. In the case of `CCN(CC(=O)Nc1ccc(OC)cc1)C(=O)c1cc(-c2cccs2)nn1-c1ccccc1`, the Potency is reported as inconclusive: 11.6 µM [inhibitor, single point]. In the case of `CCOc1ccc(N=Cc2c(C)[nH]n(-c3nc4ccccc4[nH]3)c2=O)cc1`, the Potency is reported as inconclusive: 10.3 µM [activator, partial curve]. In the case of `Oc1ccccc1OCc1nc2ccccc2s1`, the Potency is reported as inconclusive: 11.6 µM [activator, partial curve]. For `CN(CC(=O)Nc1ccccc1-c1ccccc1)Cc1ccccc1Cl`, the Potency was inconclusive: 16.4 µM [inhibitor, partial curve, poor fit]. In the case of `COc1cccc(C(=O)N/N=C/c2cn[nH]c2-c2ccc(OC)cc2OC)c1`, the “activity change, negative = inhibition” value is reported as inactive: -8%. With `CN(C)S(=O)(=O)c1ccc(C(=O)/C=C/c2cccnc2)cc1` the Potency was inconclusive: 18.3 µM [activator, single point]. For `Cc1ccccc1OCCC(=O)Nc1ccccc1C(=O)N1CCCCC1`, the “activity change, negative = inhibition” value was inactive: -1.78%. In the case of `CCOc1ccc(NC(=O)n2ncc3c(C)cccc32)cc1`, the Potency is reported as inconclusive: 6.51 µM [activator, partial curve]. With `N#CCCN/N=C(\Cc1nc2ccccc2[nH]1)c1ccccc1` the “activity change, negative = inhibition” value was inactive: 5.64%. In the case of `Cc1ccsc1C(=O)OCC(=O)NCc1ccco1`, the Potency is reported as inconclusive: 20.6 µM [activator, partial curve, poor fit]. In the case of `CC(C)CCn1c(O)c(N=NC(=O)c2ccco2)c2ccccc21`, the Potency is reported as inconclusive: 6.51 µM [inhibitor, single point]. In the case of `Oc1c(CN2CCN(c3ccccn3)CC2)cc(Cl)c2cccnc12`, the Potency is reported as inconclusive: 4.11 µM [inhibitor, partial curve]. In the case of `COc1cc(OC)c2nc(C)c3c(c2c1)N(c1ccc(O)cc1)CC3`, the “activity change, negative = inhibition” value is reported as inactive: -26.1%. For `COc1cccc(C2(c3cccc(OC)c3)CC2C(=O)Nc2ccccc2Cl)c1` (configuration not stated), the Potency was inconclusive: 20.6 µM [inhibitor, single point]. For `O=C1CSC(c2cn(-c3ccccc3)nc2-c2cc3ccccc3oc2=O)N1Cc1ccco1` (configuration not stated), the Potency was active: 16.4 µM. For `Cc1nc(NCc2cccnc2)c2c3c(sc2n1)CCCC3`, the “activity change, negative = inhibition” value was inactive: -11.5%. In the case of `O=C(CN1C(=O)CSc2ncccc21)Nc1cccc(Cl)c1`, the Potency is reported as inconclusive: 9.2 µM [activator, single point]. With `CC(C)n1nnnc1SCC(=O)c1ccc2c(c1)OCCO2` the Potency was inconclusive: 13 µM [activator, partial curve]. In the case of `O=C(COc1ccccc1F)Nc1cc(S(=O)(=O)N2CCOCC2)ccc1N1CCOCC1`, the Potency is reported as inconclusive: 20.6 µM [inhibitor, single point]. For `Nc1cc(S(=O)(=O)N2CCCCC2)ccc1Oc1ccccc1`, the Potency was inconclusive: 23.1 µM [inhibitor, single point]. With `CN(Cc1ccco1)S(=O)(=O)c1nnc(NC(=O)c2cccc(Cl)c2)s1` the “activity change, negative = inhibition” value was inactive: -18.5%. With `O=C(NCc1ccco1)C(=O)c1c[nH]c2ccccc12` the Potency was inconclusive: 29.1 µM [activator, single point]. With `CN(C(=O)COC(=O)CN1C(=O)C2CC=CCC2C1=O)c1ccccc1` (configuration not stated) the Potency was inconclusive: 13 µM [activator, partial curve]. For `Cc1ccc(N=Nc2c(=O)[nH]n3c(C)cc(C)nc23)cc1`, the “activity change, negative = inhibition” value was inactive: 10.3%. With `COc1cc(CC(C#N)(CO)c2nc3ccccc3[nH]2)ccc1OC(F)F` (configuration not stated) the Potency was inconclusive: 23.1 µM [inhibitor, single point]. In the case of `COc1cc(C(=O)N/N=C/C2CC=CCC2)cc(OC)c1OC` (configuration not stated), the “activity change, negative = inhibition” value is reported as inactive: 9.75%. For `C/C(=N\NC(=O)NC1CCCCC1)c1ccco1`, the Potency was inconclusive: 25.9 µM [activator, partial curve]. In the case of `CC(=O)Nc1ccc(S(=O)(=O)Nc2nc3c(s2)CCCC3)cc1`, the Potency is reported as inconclusive: 12.6 µM [activator, partial curve, poor fit]. In the case of `CCOc1ccc(N/C=C/C(=O)c2ccc(C)cc2)c([N+](=O)[O-])c1`, the Potency is reported as inconclusive: 5.8 µM [activator, partial curve]. With `O=C(N1CCCCC1)N1CCN(c2ccc(Cl)cc2)CC1` the “activity change, negative = inhibition” value was inactive: -8.28%. With `CC(Oc1cc(-c2ccccc2)cc2ccccc12)C(=O)N1CCOCC1` (configuration not stated) the Potency was inconclusive: 23.1 µM [inhibitor, partial curve, poor fit]. In the case of `CC(=O)NC1N=C(C)N(c2ccccc2)C1=O` (configuration not stated), the “activity change, negative = inhibition” value is reported as inactive: 28.9%. For `CC(C(=O)Nc1ccc2[nH]c(=O)[nH]c2c1)N1CCN(Cc2ccc3c(c2)OCO3)CC1` (configuration not stated), the “activity change, negative = inhibition” value was inactive: 6.83%. For `Cc1cc(Cl)ccc1OCCCC(=O)N1CCN(S(=O)(=O)c2ccccc2)CC1`, the Potency was inconclusive: 18.3 µM [inhibitor, single point]. In the case of `COc1ccc(NC(=O)CSc2n[nH]c(-c3ccccn3)n2)cc1`, the Potency is reported as inconclusive: 20.6 µM [inhibitor, single point]. For `O=C(NCc1ccco1)/C(=C/c1ccc(C(F)(F)F)cc1)c1nc2ccccc2[nH]1`, the Potency was inconclusive: 23.1 µM [activator, partial curve].
